Experimental data as given in PubChem BioAssay AID2685 (National Center for Advancing Translational Sciences (NCATS), 2010).
Some of the results follow. Shown are side measurements of this screen, not its main read-out; they come without a call. Most of these compounds were active or inconclusive in the main read-out, so they are no random draw. The note in brackets gives the kind of curve behind each potency; many fits are weak.

Experiment: qHTS Assay for Lipid Storage Modulators in Drosophila S3 Cells;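 for cell number change: cells counted by Cell Tracker Red CMTPX staining in the red channel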
Conditions: BODIPY lipid droplet fluorescence, 18-24 h; for cell number change: measured here: cell count max response, cells fed with added oleic acid
Method in brief: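 Laser-scanning cytometry quantifies lipid droplet accumulation (500–530 nm total intensity; droplet/cell object ratio) in oleic acid-fed (400 uM added) Drosophila S3 cells treated with a concentration series. 20 uM Triacsin C defined 100% inhibition.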

[1] = measured here: cell number channel AC50, cells fed with added oleic acid
[2] = measured here: lipid fluorescence (Fed channel) AC50, cells fed with added oleic acid

SMILES | cell number change [%] | AC50 [1] | AC50 [2]
O=C(O)c1ccc(Nc2c3ccccc3nc3ccccc23)cc1 | 34.7 | – | –
Clc1ccc(-c2nnc(-c3ccccc3)c(N3CCSCC3)n2)cc1 | -20.5 | – | –
CC1=CC(C)(C)N(C(=O)CSc2nnc(-c3ccc(C)cc3)o2)c2ccc(C)cc21 | -31.2 | 32.6 µM [falling, single point] | 29.1 µM [rising, single point]
O=C1CC(N2CCOCC2)=NN1c1ccc([N+](=O)[O-])cc1 | -19.1 | – | 0.00517 µM [falling, full curve, poor fit]
COc1ccc(NC(=O)[C@H](C)NC(=O)C2CCN(S(=O)(=O)c3ccc(C)cc3)CC2)cc1 | -8.96 | – | –
Cc1ccc(OCC(=O)NNC(=O)c2ccoc2C)c(Br)c1 | 450 | 0.517 µM [rising, single point] | –
Cc1ccc(C)c(S(=O)(=O)NCCCn2ccnc2)c1 | 12.1 | – | 1.16 µM [rising, partial curve]
O=C(NCc1ccc2c(c1)OCO2)Nc1cccc2ccccc12 | 11.8 | – | 29.1 µM [rising, single point]
C=C(c1ccc(OC)cc1)c1ccc(OC)cc1 | 10.9 | – | 0.82 µM [falling, single point]
CCC1=Nc2cc(C(=O)NCCN3CCOCC3)ccc2Sc2ccccc21 | 19.5 | – | 29.1 µM [falling, single point]
Cc1noc(C)c1CSCC(=O)Nc1nc2c(F)cc(F)cc2s1 | -6.22 | 0.461 µM [rising, partial curve, poor fit] | 0.92 µM [rising, partial curve]
COc1cc2c(cc1OC)C1O[C@](c3ccsc3)(C2)OC2=C1C(=O)OC1(CCCCC1)C2 | 14 | – | 5.31 µM [rising, single point]
CCOC(=O)CSc1c(-c2ccc(Cl)cc2)[nH]c2ccccc12 | -45.8 | – | 2.06 µM [rising, partial curve, poor fit]
CCOc1ccc(NC(=O)CSc2nnc(COc3c(C)cccc3C)o2)cc1 | – | – | 3.66 µM [rising, single point]
NS(=O)(=O)c1ccc(CCNc2ccccc2[N+](=O)[O-])cc1 | -0.451 | – | 0.58 µM [falling, single point]
O=C(N/N=C\c1ccc(CNS(=O)(=O)c2ccc(Cl)cc2)o1)C(=O)Nc1ccc(Oc2ccccc2)cc1 | -50.6 | 7.31 µM [falling, partial curve] | 7.31 µM [falling, partial curve]
CNC(=O)c1csc(-c2ccccc2)n1 | 29.7 | – | 11.6 µM [rising, partial curve, poor fit]

Part of the list above in order of length of the SMILES, low to high:
SMILES | cell number change [%] | AC50 [1] | AC50 [2]
Cc1ccc(C)c(S(=O)(=O)NCCCn2ccnc2)c1 | 12.1 | – | 1.16 µM [rising, partial curve]
CCC1=Nc2cc(C(=O)NCCN3CCOCC3)ccc2Sc2ccccc21 | 19.5 | – | 29.1 µM [falling, single point]
CC1=CC(C)(C)N(C(=O)CSc2nnc(-c3ccc(C)cc3)o2)c2ccc(C)cc21 | -31.2 | 32.6 µM [falling, single point] | 29.1 µM [rising, single point]
O=C(N/N=C\c1ccc(CNS(=O)(=O)c2ccc(Cl)cc2)o1)C(=O)Nc1ccc(Oc2ccccc2)cc1 | -50.6 | 7.31 µM [falling, partial curve] | 7.31 µM [falling, partial curve]
